Data taken from publication PMC7468131.
No constants are given. Whether binding was seen depends on the method and setting. In cells and extracts the contact can be indirect. Sequences can lack the tags named with a protein.

The chains behind the UniProt entries cited, without tags or fusion partners. Where a name states a change or a piece, a line headed by the entry shows the natural chain unless it says otherwise. A line that says so, or that is headed by a name, gives the form on record, which may keep a tag or linker. Residues count along the entry.
UniProt Q13586: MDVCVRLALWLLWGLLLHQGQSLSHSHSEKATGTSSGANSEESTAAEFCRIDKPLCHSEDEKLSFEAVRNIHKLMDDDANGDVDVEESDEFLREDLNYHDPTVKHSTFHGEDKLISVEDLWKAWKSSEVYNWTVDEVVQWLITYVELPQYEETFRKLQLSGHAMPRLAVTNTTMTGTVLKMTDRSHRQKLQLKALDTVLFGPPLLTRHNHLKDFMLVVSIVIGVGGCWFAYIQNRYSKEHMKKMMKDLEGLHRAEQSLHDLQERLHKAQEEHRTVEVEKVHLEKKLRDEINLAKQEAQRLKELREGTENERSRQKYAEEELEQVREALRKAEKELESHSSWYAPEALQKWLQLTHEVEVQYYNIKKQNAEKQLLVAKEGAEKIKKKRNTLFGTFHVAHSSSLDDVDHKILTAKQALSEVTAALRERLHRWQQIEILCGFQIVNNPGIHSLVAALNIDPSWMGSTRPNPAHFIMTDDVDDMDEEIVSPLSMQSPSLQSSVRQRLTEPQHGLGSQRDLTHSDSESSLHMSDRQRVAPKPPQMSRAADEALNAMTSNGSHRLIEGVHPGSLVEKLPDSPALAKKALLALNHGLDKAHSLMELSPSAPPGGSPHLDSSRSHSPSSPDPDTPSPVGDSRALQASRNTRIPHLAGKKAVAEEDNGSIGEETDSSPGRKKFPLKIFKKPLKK
GST-tagged STIM1 fragment a.a. 1-249: residues 23-249 of Q13586
GST-tagged STIM1 fragment a.a. 250-400: residues 250-400 of Q13586
GST-tagged STIM1 fragment a.a. 324-448: residues 324-448 of Q13586
GST-tagged STIM1 fragment a.a. 400-600: residues 400-600 of Q13586
GST-tagged STIM1 fragment a.a. 600-685: residues 600-685 of Q13586

Tests used:
Assay in all cases: pull-down; 20 ug of GST-tagged fragments of STIM1 (from E. coli, on glutathione beads) as bait, incubated 6 h with lysates of transfected HEK293T cells; binding buffer 0.5% Igepal CA-630, 20 mM Tris-HCl, 100 mM NaCl, 2 mM EDTA, 10% glycerol, pH 7.5; only the target purified
[1] = biological target: GST-tagged STIM1 fragment a.a. 1-249 (UniProt Q13586)
[2] = biological target: GST-tagged STIM1 fragment a.a. 250-400 (UniProt Q13586)
[3] = biological target: GST-tagged STIM1 fragment a.a. 324-448 (UniProt Q13586)
[4] = biological target: GST-tagged STIM1 fragment a.a. 400-600 (UniProt Q13586)
[5] = biological target: GST-tagged STIM1 fragment a.a. 600-685 (UniProt Q13586)

Measured: binding

B1: FLAG-tagged E-Syt1 (protein, UniProt Q9BSJ8 1-1104)
chain: MERSPGEGPSPSPMDQPSAPSDPTDQPPAAHAKPDPGSGGQPAGPGAAGEALAVLTSFGRRLLVLIPVYLAGAVGLSVGFVLFGLALYLGWRRVRDEKERSLRAARQLLDDEEQLTAKTLYMSHRELPAWVSFPDVEKAEWLNKIVAQVWPFLGQYMEKLLAETVAPAVRGSNPHLQTFTFTRVELGEKPLRIIGVKVHPGQRKEQILLDLNISYVGDVQIDVEVKKYFCKAGVKGMQLHGVLRVILEPLIGDLPFVGAVSMFFIRRPTLDINWTGMTNLLDIPGLSSLSDTMIMDSIAAFLVLPNRLLVPLVPDLQDVAQLRSPLPRGIIRIHLLAARGLSSKDKYVKGLIEGKSDPYALVRLGTQTFCSRVIDEELNPQWGETYEVMVHEVPGQEIEVEVFDKDPDKDDFLGRMKLDVGKVLQASVLDDWFPLQGGQGQVHLRLEWLSLLSDAEKLEQVLQWNWGVSSRPDPPSAAILVVYLDRAQDLPLKKGNKEPNPMVQLSIQDVTQESKAVYSTNCPVWEEAFRFFLQDPQSQELDVQVKDDSRALTLGALTLPLARLLTAPELILDQWFQLSSSGPNSRLYMKLVMRILYLDSSEICFPTVPGCPGAWDVDSENPQRGSSVDAPPRPCHTTPDSQFGTEHVLRIHVLEAQDLIAKDRFLGGLVKGKSDPYVKLKLAGRSFRSHVVREDLNPRWNEVFEVIVTSVPGQELEVEVFDKDLDKDDFLGRCKVRLTTVLNSGFLDEWLTLEDVPSGRLHLRLERLTPRPTAAELEEVLQVNSLIQTQKSAELAAALLSIYMERAEDLPLRKGTKHLSPYATLTVGDSSHKTKTISQTSAPVWDESASFLIRKPHTESLELQVRGEGTGVLGSLSLPLSELLVADQLCLDRWFTLSSGQGQVLLRAQLGILVSQHSGVEAHSHSYSHSSSSLSEEPELSGGPPHITSSAPELRQRLTHVDSPLEAPAGPLGQVKLTLWYYSEERKLVSIVHGCRSLRQNGRDPPDPYVSLLLLPDKNRGTKRRTSQKKRTLSPEFNERFEWELPLDEAQRRKLDVSVKSNSSFMSRERELLGKVQLDLAETDLSQGVARWYDLMDNKDKGSS
no binding: all assays above
